Where “and” joins values, the source holds several entries; their conditions need not be identical. Identical values can stand only once.
Experiments:
[1] = Between run precision in artificial CSF
[2] = Within run precision with artificial CSF (recovery of 5-HT and acetyl 5-HT after N-succinimidyl propionate derivatization, HPLC with electrochemical detection)
[3] = Limit of sensitivity of serotonin determination (human CSF)
[4] = Limit of sensitivity (signal/noise=3) of histamine and methylhistamine derivatives; conditions: of the pure amines, measured as derivatives
[5] = for calculated reaction yield: derivatization with sulfo B-H; for [C] recovery of derivative after cellulose phosphate column: n = 4, mean recovery of 100 pmol of pure derivative
[6] = Brain tissue assay: recovery tests and precision in rat hypothalamus; conditions: rat hypothalami homogenate, 100 pmol added
[7] = conc. (M/l × 10^10) = 4, 0.0004 µM
[8] = conc. (M/l × 10^10) = 10, 0.001 µM
[9] = conc. (× 10^10) M/l = 4, 0.0004 µM, 0.0004 µM
[10] = conc. (× 10^10) M/l = 10, 0.001 µM, 0.001 µM

Compound	% Recovery (Mean ± S.D.) ([1]; conc. (M/l × 10^10) = 1, 0.0001 µM)	% Recovery (Mean ± S.D.) [1, 7]	% Recovery (Mean ± S.D.) [1, 8]	% Recovery Mean ± S.D. ([2]; conc. (× 10^10) M/l = 1, 0.0001 µM)	% Recovery (individual portion) ([2]; conc. (× 10^10) M/l = 1, 0.0001 µM, 0.0001 µM)	% Recovery (individual portion) [2, 9]	% Recovery (individual portion) [2, 10]	detection limit [3]	limit of sensitivity [3]	% Recovery Mean ± S.D. [2, 9]	detection limit (signal/noise=3) [4]	calculated reaction yield [5]	[C] recovery of derivative after cellulose phosphate column [5]	recovery [6]
NCCc1c[nH]c2ccc(O)cc12 [5-HT, 5-hydroxytryptamine]	50 ± 17.7%	55.74 ± 13.90%	45.28 ± 18.12%	50 + 17.7%	50% and 25% and 75%	68.6% and 62.9% and 74.3% and 52.4% and 57.1% and 47.6% and 42.9% and 84.8% and 78.8% and 60.6% and 66.7% and 64.7% and 52.9% and 41.1% and 35.3% and 32.4% and 40% and 45% and 50% and 36% and 44%	98% and 50% and 43.2% and 52.3% and 30.8% and 40.4% and 36.5% and 53.7% and 51.2% and 56.1% and 78.1% and 68.3% and 39.3% and 28.6% and 21.4% and 20.2% and 40% and 46% and 32% and 40.3% and 43.5% and 51.6%	18 parts per trillion	0.1 picomol/ml CSF	–	–	–	–	–
CC(=O)NCCc1c[nH]c2ccc(O)cc12 [Acetyl 5-HT, N-acetylserotonin]	–	48.65 ± 12.56%	39.23 ± 13.72%	–	–	78.3% and 52.2% and 56.5% and 82.6% and 42.3% and 38.4% and 50.0% and 33.4% and 53.6% and 43.9% and 48.8% and 53.7%	61.4% and 47.4% and 42.1% and 40.4% and 47.1% and 40.0% and 30.8% and 47.7% and 36.9% and 48.5% and 52.4% and 54.4% and 26.9% and 14.4% and 10.6% and 15.4% and 18.3%	–	–	64.32 ± 14.9% and 42.28 ± 4.74% and 48.78 ± 4.88%	–	–	–	–
CNCCc1c[nH]cn1 [Nα-methylhistamine, reference compound]	–	–	–	–	–	–	–	–	–	–	1 pmol	98.2%	88.3%	–
NCCc1c[nH]cn1 [histamine]	–	–	–	–	–	–	–	–	–	–	0.1 pmol	99.1%	90.0%	96%
Cn1cnc(CCN)c1 [N.tau.-methylhistamine]	–	–	–	–	–	–	–	–	–	–	0.2 pmol	94.9%	88.4%	86%
